Results: PMC12118576, “Selective Glycopolymer Inhibitors of Galectin-3: Supportive Anti-Cancer Agents Protecting Monocytes and Preserving Interferon-Gamma Function” (International Journal of Nanomedicine, 2025)
These are yes or no findings as the source states them, for the method shown. Some results given as binding are weak or reduced against the parent protein; the word gives no strength.

By UniProt entry, the sequences of proteins in these tests, tags left out.
UniProt P17931: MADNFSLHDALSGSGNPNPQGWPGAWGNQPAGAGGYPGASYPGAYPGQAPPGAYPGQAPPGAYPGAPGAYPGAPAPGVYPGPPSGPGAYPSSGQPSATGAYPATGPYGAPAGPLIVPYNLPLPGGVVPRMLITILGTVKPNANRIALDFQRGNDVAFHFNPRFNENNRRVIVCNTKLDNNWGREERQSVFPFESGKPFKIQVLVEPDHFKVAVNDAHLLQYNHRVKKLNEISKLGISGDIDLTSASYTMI

Biological target: T1, asialofetuin (UniProt P12763)
T1 sequence: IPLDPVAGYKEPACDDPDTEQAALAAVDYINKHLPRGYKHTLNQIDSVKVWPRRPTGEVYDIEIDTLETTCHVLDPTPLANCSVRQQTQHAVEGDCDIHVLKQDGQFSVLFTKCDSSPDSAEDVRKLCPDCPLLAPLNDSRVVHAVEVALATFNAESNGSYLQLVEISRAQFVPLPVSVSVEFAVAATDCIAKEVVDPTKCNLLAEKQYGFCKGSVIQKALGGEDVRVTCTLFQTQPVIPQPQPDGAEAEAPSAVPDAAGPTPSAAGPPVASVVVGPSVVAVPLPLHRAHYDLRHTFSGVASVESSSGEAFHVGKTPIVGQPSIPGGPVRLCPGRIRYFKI
Assay: ELISA; competitive ELISA-type assay; ASF coated on the plate (0.1 µM in PBS, pH 7.5); Gal-1 or Gal-3 1.25 µM in EPBS (2 mM EDTA in PBS) with serial dilutions of glycopolymers or oligosaccharides, 2 h; bound galectin detected with anti-His-HRP; both purified

binding: binds
Substance: recombinant human galectin-3 (His-tagged) (from UniProt P17931 1-250)
